This note sets out measurements from article PMC11602245 (Journal of Peptide Science, 2024).

The same purity stands for every peptide and may come from a single statement.

This data set is described as follows: general procedure: Fmoc solid-phase peptide synthesis; H-L-Cys(Trt)-2CT preloaded resin (0.71 mmol/g); HATU. The settings on record: whole synthesis; for final HPLC purity: RP-HPLC at 220 nm (HPLC-MS system), scale of the general procedure 0.030 mmol; for isolated yield: scale 0.030 mmol.

As for “[DOTA,Asn^5‐Ψ[Tz]‐Phe^6,DTrp^8,β‐Phe^11]SST‐14”, the “final HPLC purity” value is listed as >95% and the isolated yield amounted to 32%.
For “[DOTA,Asn^5‐Ψ[Tz]‐Phe^6,DTrp^8,Thr^10‐Ψ[NH]‐Phe^11]SST‐14” the same measures were >95% and 27%.
For [DOTA,Asn^5‐Ψ[Tz]‐Phe^6,DTrp^8]SST‐14 the same measures were >95% and 35%.
As to “[DOTA,Asn^5‐Ψ[Tz]‐Phe^6,DTrp^8,N‐Me‐Phe^11]SST‐14”, the “final HPLC purity” value is reported as >95% and the isolated yield is 14%.
